System: NIH/3T3 mouse embryonic fibroblast cells
Experiment: XTT cytotoxicity assay on NIH/3T3 cells
Settings: NIH/3T3 IC50 over PPARγ EC50; values >1000 μM accepted as 1000
Procedure: XTT is reduced to soluble formazan by this enzyme and formazan is quantified and directly proportional to the number of viable cells. […] NIH/3T3 cells were seeded at 1 × 10^4 cells into each well of 96-well plates. […] The XTT assay (Xenometrix, Allschwil, Switzerland) was performed according to the manufacturer’s instructions, after 24 h incubation with the compounds. The absorbance was determined after 2 h incubation at 480 nm with a reference wavelength of 680 nm using a microplate reader (BioTek, USA). […] The stock solutions of the compounds were prepared in DMSO and further dilutions were made with fresh culture medium. The final DMSO concentration was under 0.1%. Rosiglitazone and Pioglitazone were used as positive controls. All data were obtained from 3 independent experiments in quadruplicates.

| SMILES | IC50/EC50 [µM] |
| --- | --- |
| CCCCNC(=O)CN1C(=O)S/C(=C\c2ccccc2)C1=O [1a] | 142.85 |
| CCN(CC)C(=O)CN1C(=O)S/C(=C\c2ccccc2)C1=O [1i] | 105.16 |
| CCCCNC(=O)CN1C(=O)S/C(=C\c2ccc(Cl)cc2)C1=O [3a] | 163.73 |

From publication PMC5663708, “Novel Benzylidene Thiazolidinedione Derivatives as Partial PPARγ Agonists and their Antidiabetic Effects on Type 2 Diabetes” (Scientific Reports, 2017)
